Laboratory results published in the supplement of paper PMC4371806.
Whole data set: some 1,600 compounds, median “plate-normalized OD600 growth (mean of duplicates)” near 0.31, cut for the lowest 2% near 0.23. This is one part of the list.

Tested on: Escherichia coli BW25113
Assay: plate-normalized OD600 growth (mean of duplicates) (OD600 (normalized)); higher = more growth (less inhibition)
Conditions: 10 µM
Procedure: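 E. coli BW25113 in LB (100 µl, 96-well, no shaking) was exposed to 10 µM of each compound (here the ChemBridge subset of a ~30,000-member library) and grown at 37°C for 24 h or 15°C for 48 h, in duplicate. Growth was read as OD600 and the duplicate ODs were normalized across screening plates to correct plate-to-plate variation.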

| SMILES | plate-normalized OD600 growth (temperature: 15°C, 48 h) | plate-normalized OD600 growth (temperature: 37°C, 24 h) |
| --- | --- | --- |
| Nc1cc(C(=O)O)ccc1Nc1ccccc1 | 0.261 | 0.634 |
| CC(=O)c1ccc(NC(=O)Cc2ccccc2[N+](=O)[O-])cc1 | 0.237 | 0.599 |
| N#CCNC1CC(=O)N(c2ccc(F)cc2)C1=O (stereo not drawn) | 0.245 | 0.606 |
| N#CC1=C(N)Oc2cc(N)ccc2C1c1cccc(Cl)c1Cl (stereo not drawn) | 0.243 | 0.592 |
| CCSC1=C(C#N)C(c2ccc(Cl)cc2Cl)CC(=O)N1 (stereo not drawn) | 0.255 | 0.65 |
| COc1ccc(NC(=O)c2cccc(C)c2)c(OC)c1 | 0.244 | 0.625 |
| CC1CCCC(C)N1C(=O)Nc1ccccc1 (stereo not drawn) | 0.256 | 0.622 |
| COc1ccc([N+](=O)[O-])cc1NCc1c(F)cccc1F | 0.25 | 0.628 |
| O=c1c(Cc2ccccc2)c[nH]c2ccccc12 | 0.242 | 0.634 |
| O=C(O)CCSc1nccn1Cc1ccccc1 | 0.242 | 0.653 |
| CCc1ccc(NC(=O)Cn2cc([N+](=O)[O-])nc2C)cc1 | 0.261 | 0.653 |
| O=C(NN1CCOCC1)c1cccc(Br)c1 | 0.253 | 0.615 |
| COc1ccc(-c2c(C)[nH]n3c(=O)cc(-c4ccc([N+](=O)[O-])cc4)nc23)cc1 | 0.24 | 0.608 |
| COc1ccc2c(c1)-c1nc(N)sc1CC2 | 0.253 | 0.616 |
| COc1ccc(N/C=C(/c2cc(O)ccc2O)[N+](=O)[O-])cc1 | 0.255 | 0.624 |
| CN(CCc1ccccc1)CC(O)c1cccc([N+](=O)[O-])c1 (stereo not drawn) | 0.246 | 0.611 |
| O=C(COc1ccc(Cl)cc1Cl)NCCc1ccccc1 | 0.258 | 0.621 |
| CCN1CCN(CC2CCCCC2)CC1 | 0.26 | 0.637 |
| CC(=O)Nc1ccc(S(=O)(=O)NC2=NCCS2)cc1 | 0.234 | 0.602 |
| O=C(CSc1nc2ccccc2o1)NC1CCCCC1 | 0.3 | 0.648 |
| CCOc1ccc(NC(=O)c2c(OC)cccc2OC)cc1 | 0.256 | 0.611 |
| Cc1nc2n(n1)C(c1ccccc1)C=C(c1ccccc1)N2 (stereo not drawn) | 0.239 | 0.617 |
| OC1CCCN(Cc2ccc(Br)s2)C1 (stereo not drawn) | 0.255 | 0.632 |
| Cc1ccc(O)c(-c2cc(-c3ccccc3)n[nH]2)c1 | 0.246 | 0.599 |
| N#C/C(=C\c1ccc(F)cc1)c1nc(C2CC2)cs1 | 0.245 | 0.625 |
| COc1cc(/C=C\C(=O)c2ccco2)cc(OC)c1OC | 0.23 | 0.609 |
| O=[N+]([O-])c1ccccc1Sc1nccn1Cc1ccccc1 | 0.241 | 0.609 |

| SMILES | plate-normalized OD600 growth (temperature: 15°C, 48 h) | plate-normalized OD600 growth (temperature: 37°C, 24 h) |
| --- | --- | --- |
| Cc1ccc(N2C(=O)CC(SCc3ccccc3)C2=O)c(C)c1 (stereo not drawn) | 0.228 | 0.598 |
| NNC(=O)CCn1c2ccc(Cl)cc2c2cc(Cl)ccc21 | 0.241 | 0.587 |
| O=[N+]([O-])c1cccc(CNc2cccc(F)c2)c1 | 0.241 | 0.603 |
| O=C(O)C1NCCc2ccccc21 (stereo not drawn) | 0.249 | 0.612 |
| CCN(CCN(C)C)Cc1ccc(NC(C)=O)cc1 | 0.234 | 0.652 |
| O=C(O)CC(NC(=O)c1ccccc1)c1ccccc1 (stereo not drawn) | 0.25 | 0.626 |
| CCC(C(=O)Nc1c(C)cc(C)cc1C)N1CCCCCC1 (stereo not drawn) | 0.243 | 0.643 |
| O=C(CCN1C(=O)c2ccccc2C1=O)NCc1ccco1 | 0.255 | 0.646 |
| CC1CCN(C(=O)c2ccc(C(C)(C)C)cc2)CC1 | 0.257 | 0.627 |
| O=c1[nH]c(/C=C/c2ccc(Cl)cc2Cl)c([N+](=O)[O-])c(=O)[nH]1 | 0.248 | 0.609 |
| C=CCn1c(SC(C)CC)nc(O)cc1=O (stereo not drawn) | 0.258 | 0.618 |
| CSc1ccc(CN2CCC(C(N)=O)CC2)cc1 | 0.28 | 0.641 |
| CC(C)(C)c1ccccc1OCCCSC#N | 0.233 | 0.622 |
| COc1ccc(C(=O)NN2CCOCC2)cc1OC | 0.253 | 0.604 |
| COc1ccc([N+](=O)[O-])cc1NCc1cc(OC)c2c(c1)OCO2 | 0.24 | 0.616 |
| O=[N+]([O-])c1cc2c3c(c1)C1C=CCC1CN3CC1CC=CC21 (stereo not drawn) | 0.277 | 0.623 |
| COc1ccc(NC(=O)Cc2c(O)c3ccccc3[nH]c2=O)cc1 | 0.266 | 0.634 |
| CC(=O)N1CCN(Cc2cc(C(C)(C)C)cc(C(C)(C)C)c2O)CC1 | 0.234 | 0.65 |
| O=C(CN1CCCCCC1)N1c2ccccc2Sc2ccc(Cl)cc21 | 0.244 | 0.612 |
| CC(=O)c1ccc(N2CCN(c3cnccn3)CC2)cc1 | 0.267 | 0.625 |
| CC1CCN(C(=O)c2ccc(Cl)c(Cl)c2)CC1 | 0.245 | 0.623 |
| CS(=O)(=O)N1CCN(c2ccc([N+](=O)[O-])cc2Cl)CC1 | 0.245 | 0.614 |
| O=C(Nc1nc2ccccc2n1CCN1CCCCC1)c1ccccc1 | 0.237 | 0.602 |
| Cc1nc(SCC(N)=O)c(C#N)c(C)c1C | 0.274 | 0.642 |
| CN(C)c1ccc(CN2CCC(O)CC2)cc1 | 0.25 | 0.635 |
| CCCN1CCC(NN2CCOCC2)CC1 | 0.258 | 0.612 |
| Cc1nc([N+](=O)[O-])c(N2CCOCC2)n1Cc1ccccc1 | 0.259 | 0.623 |

Retrieved one by one from the list above:

| SMILES | plate-normalized OD600 growth (temperature: 15°C, 48 h) | plate-normalized OD600 growth (temperature: 37°C, 24 h) |
| --- | --- | --- |
| Cc1ccc(N2C(=O)CC(SCc3ccccc3)C2=O)c(C)c1 (stereo not drawn) | 0.228 | 0.598 |
| CSc1ccc(CN2CCC(C(N)=O)CC2)cc1 | 0.28 | 0.641 |
